Results on 9 molecules are retold here after PMC3707915.

The chains behind the UniProt entries cited, without tags or fusion partners. Where a name states a change or a piece, a line headed by the entry shows the natural chain unless it says otherwise.
UniProt P53742: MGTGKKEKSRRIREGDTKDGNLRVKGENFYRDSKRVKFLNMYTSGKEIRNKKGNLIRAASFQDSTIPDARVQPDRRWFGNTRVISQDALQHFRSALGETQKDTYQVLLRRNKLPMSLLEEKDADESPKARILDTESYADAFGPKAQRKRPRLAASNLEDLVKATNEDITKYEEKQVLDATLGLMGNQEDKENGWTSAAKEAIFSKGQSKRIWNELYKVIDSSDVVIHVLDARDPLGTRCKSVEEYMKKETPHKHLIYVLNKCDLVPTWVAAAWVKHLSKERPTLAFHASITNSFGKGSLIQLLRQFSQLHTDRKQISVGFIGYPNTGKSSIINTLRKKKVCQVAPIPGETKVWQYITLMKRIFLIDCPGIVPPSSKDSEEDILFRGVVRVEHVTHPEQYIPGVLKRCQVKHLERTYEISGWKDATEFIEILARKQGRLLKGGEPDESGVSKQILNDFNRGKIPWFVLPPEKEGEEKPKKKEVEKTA
UniProt P39938: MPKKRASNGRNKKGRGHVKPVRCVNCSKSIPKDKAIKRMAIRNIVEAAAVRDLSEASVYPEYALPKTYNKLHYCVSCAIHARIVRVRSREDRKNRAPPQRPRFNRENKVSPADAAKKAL
UniProt Q12522: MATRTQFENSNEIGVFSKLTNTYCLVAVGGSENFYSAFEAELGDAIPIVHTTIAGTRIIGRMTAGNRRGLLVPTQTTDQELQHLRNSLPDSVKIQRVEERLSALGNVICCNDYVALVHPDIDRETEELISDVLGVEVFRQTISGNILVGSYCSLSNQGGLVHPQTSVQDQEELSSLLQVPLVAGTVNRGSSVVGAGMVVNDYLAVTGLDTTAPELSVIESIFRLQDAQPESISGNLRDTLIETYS
UniProt P0CX27: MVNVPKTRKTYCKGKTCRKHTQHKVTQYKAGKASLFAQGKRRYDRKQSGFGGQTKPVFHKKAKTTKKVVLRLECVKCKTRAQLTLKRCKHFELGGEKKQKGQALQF
UniProt P05747: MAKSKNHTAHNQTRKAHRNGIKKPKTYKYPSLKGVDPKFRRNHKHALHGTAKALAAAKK
UniProt Q12019: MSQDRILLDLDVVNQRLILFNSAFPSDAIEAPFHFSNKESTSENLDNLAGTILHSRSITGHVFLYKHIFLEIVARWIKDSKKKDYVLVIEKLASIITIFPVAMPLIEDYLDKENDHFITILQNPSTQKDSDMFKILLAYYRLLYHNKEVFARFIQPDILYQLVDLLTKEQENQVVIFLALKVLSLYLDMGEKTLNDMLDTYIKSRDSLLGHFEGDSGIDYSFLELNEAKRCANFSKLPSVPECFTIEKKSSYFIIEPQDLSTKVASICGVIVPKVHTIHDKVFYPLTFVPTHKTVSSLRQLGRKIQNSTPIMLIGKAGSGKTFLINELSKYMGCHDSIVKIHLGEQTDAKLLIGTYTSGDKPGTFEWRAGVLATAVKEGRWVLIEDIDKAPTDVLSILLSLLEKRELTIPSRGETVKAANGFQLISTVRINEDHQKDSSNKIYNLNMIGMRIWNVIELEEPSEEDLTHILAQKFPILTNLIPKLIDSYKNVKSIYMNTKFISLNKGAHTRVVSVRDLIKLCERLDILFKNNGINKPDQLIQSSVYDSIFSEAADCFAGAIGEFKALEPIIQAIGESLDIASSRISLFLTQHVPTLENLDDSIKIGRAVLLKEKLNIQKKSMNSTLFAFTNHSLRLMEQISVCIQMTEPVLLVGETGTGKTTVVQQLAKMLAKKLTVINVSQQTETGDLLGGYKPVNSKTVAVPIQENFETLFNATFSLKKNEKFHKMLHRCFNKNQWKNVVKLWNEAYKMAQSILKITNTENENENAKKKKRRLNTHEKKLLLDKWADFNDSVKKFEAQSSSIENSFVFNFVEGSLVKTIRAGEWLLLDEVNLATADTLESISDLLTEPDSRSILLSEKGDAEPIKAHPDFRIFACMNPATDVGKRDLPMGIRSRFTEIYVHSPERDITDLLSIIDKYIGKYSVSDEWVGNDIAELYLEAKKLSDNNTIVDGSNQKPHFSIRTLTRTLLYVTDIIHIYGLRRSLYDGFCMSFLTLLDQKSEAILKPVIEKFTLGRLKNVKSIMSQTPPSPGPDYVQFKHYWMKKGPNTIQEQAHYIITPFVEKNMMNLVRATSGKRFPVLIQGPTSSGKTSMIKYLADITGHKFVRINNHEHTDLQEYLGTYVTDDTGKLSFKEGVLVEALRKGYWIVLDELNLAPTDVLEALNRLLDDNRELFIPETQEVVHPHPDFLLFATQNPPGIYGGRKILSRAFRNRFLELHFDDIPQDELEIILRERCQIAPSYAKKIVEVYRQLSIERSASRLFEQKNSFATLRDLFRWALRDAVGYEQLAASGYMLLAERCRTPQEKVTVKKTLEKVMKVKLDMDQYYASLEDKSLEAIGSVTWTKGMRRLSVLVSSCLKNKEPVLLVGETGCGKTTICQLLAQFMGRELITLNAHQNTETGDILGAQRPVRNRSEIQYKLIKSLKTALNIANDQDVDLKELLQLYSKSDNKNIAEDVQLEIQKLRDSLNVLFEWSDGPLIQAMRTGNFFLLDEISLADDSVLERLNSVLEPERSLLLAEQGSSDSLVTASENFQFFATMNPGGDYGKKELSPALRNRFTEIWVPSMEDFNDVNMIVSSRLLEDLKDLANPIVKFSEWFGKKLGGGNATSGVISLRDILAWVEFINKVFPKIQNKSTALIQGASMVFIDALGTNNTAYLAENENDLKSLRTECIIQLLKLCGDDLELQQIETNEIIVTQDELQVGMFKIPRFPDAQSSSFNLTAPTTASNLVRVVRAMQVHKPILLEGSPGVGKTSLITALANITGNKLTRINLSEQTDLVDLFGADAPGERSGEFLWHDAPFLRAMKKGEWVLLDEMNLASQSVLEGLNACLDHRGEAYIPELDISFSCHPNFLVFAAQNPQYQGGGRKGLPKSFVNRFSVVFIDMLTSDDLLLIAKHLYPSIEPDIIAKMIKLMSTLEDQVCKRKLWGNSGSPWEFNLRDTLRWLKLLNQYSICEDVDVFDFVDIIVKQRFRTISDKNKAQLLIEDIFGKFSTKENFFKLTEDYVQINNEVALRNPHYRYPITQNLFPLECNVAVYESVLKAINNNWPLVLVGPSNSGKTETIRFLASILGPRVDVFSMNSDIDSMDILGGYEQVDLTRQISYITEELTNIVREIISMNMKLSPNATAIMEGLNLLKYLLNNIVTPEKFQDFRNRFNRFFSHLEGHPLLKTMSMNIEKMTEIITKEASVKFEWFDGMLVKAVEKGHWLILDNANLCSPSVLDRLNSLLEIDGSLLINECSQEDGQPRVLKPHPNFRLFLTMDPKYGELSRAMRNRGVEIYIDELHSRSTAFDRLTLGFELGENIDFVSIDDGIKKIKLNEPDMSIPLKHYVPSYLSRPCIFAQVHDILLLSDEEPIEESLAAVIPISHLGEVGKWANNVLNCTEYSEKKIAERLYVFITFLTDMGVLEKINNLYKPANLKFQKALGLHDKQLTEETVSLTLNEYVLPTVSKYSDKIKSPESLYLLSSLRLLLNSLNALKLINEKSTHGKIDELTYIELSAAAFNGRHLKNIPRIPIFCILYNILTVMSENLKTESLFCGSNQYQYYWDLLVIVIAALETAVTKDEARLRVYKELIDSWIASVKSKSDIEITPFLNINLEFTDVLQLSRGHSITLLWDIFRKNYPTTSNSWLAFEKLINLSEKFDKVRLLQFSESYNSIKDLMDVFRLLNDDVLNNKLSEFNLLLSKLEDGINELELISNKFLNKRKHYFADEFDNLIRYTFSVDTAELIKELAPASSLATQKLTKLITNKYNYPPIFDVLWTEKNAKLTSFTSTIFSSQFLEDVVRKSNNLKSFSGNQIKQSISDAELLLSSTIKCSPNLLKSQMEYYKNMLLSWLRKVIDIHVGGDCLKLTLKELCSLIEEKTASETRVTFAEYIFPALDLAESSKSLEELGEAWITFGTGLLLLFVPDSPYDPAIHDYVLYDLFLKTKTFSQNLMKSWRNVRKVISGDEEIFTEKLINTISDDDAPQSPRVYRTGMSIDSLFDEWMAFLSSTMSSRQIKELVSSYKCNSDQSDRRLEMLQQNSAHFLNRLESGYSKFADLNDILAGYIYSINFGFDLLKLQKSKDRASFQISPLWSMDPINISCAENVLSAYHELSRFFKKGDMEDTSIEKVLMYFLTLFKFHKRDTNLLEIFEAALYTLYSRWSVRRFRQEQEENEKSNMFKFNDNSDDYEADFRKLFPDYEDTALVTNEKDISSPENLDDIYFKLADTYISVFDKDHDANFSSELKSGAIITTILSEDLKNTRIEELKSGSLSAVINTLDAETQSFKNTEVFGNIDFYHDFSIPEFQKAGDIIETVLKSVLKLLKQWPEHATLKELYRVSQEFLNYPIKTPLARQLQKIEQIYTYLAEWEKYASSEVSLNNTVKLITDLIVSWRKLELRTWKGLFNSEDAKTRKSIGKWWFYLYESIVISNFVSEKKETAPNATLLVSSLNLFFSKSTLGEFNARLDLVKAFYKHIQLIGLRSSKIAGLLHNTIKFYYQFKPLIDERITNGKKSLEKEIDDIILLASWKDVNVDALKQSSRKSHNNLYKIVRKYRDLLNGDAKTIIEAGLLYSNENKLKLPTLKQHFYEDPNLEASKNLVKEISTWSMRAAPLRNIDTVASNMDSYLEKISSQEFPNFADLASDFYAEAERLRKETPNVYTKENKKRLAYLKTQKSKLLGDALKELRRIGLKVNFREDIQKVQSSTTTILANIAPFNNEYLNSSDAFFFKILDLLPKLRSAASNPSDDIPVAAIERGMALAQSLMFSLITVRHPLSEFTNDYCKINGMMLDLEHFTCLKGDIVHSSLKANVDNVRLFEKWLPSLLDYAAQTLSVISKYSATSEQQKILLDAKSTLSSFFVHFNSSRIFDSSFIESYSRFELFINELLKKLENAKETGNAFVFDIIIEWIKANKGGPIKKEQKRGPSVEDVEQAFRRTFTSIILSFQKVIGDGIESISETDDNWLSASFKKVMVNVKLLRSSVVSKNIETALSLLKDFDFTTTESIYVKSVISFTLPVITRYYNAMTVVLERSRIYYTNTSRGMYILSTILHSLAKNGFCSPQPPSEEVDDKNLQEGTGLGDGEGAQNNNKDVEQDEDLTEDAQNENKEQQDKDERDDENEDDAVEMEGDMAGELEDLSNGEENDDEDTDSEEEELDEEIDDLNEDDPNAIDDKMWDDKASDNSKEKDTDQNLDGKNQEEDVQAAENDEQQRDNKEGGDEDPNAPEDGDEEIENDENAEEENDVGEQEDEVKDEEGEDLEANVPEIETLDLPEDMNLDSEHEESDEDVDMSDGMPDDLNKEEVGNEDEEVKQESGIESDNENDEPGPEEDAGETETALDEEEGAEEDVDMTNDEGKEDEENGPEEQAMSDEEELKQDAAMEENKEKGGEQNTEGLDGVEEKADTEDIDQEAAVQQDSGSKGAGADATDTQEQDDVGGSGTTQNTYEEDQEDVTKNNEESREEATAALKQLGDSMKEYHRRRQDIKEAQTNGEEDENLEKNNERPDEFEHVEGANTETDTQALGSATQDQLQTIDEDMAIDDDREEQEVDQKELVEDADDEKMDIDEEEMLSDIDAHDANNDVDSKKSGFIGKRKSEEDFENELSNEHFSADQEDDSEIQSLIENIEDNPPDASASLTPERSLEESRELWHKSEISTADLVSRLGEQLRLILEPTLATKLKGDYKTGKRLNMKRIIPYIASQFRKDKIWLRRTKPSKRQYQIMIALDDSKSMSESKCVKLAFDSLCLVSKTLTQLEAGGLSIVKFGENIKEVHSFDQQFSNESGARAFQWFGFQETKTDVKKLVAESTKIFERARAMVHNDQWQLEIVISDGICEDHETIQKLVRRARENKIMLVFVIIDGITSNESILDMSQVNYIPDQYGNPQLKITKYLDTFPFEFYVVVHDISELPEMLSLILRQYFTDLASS
UniProt Q07915: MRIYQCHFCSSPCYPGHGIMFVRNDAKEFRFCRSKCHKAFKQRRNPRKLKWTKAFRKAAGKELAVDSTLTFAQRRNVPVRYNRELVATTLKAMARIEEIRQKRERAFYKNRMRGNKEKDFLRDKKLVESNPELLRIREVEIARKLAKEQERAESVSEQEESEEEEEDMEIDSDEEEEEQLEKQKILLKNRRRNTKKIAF

Assay [1] addresses Nog2-TAP (S. cerevisiae) (UniProt P53742). Nature of the assay: affinity purification with mass spectrometry; TAP-tagged LSU biogenesis factor and associated pre-ribosomal particles purified in one step from total yeast cellular extract on rabbit IgG coupled magnetic beads, 1 h at 4°C, MB buffer (20 mM Tris HCl pH 8, 200 or 300 mM KCl, 5 mM MgOAc) with 0.5% Triton X-100 and 0.1% Tween 20; eluates compared pair wise by semi-quantitative LC-MS/MS with iTRAQ reagents; for Nog1-, Nog2- and Rsa4-TAP wild type against strains in which RPL25, RPL2, RPL43 or RPL21 was shut down for 4 h in glucose.

The target in assay [2] is rpS26-FLAG (S. cerevisiae) (UniProt P39938). Nature of the assay: affinity purification with mass spectrometry; rpS26-FLAG and associated 80S ribosomes purified in one step from total yeast cellular extract on anti-FLAG M2 sepharose beads, 1 h at 4°C, MB buffer with 0.5% Triton X-100 and 0.1% Tween; eluates compared pair wise with LSU precursor particles by semi-quantitative LC-MS/MS with iTRAQ reagents.

The target in assay [3] is T1, Arx1-TAP (S. cerevisiae) (UniProt Q03862).
T1 sequence: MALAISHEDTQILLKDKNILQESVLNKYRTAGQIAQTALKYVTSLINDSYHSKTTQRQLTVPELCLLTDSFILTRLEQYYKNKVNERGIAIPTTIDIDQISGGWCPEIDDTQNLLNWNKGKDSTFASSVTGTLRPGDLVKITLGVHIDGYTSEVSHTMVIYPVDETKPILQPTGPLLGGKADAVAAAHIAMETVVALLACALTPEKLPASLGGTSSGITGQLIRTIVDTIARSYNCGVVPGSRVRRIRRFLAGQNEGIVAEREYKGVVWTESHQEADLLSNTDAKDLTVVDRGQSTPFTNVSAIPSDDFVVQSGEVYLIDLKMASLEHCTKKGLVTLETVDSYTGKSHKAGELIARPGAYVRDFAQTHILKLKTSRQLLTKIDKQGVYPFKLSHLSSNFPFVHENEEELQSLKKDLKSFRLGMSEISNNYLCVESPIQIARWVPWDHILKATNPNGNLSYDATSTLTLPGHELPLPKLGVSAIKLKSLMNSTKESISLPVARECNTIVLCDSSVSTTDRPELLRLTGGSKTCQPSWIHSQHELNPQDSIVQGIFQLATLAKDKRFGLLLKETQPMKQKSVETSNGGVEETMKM
Nature of the assay: affinity purification with mass spectrometry; TAP-tagged LSU biogenesis factor and associated pre-ribosomal particles purified in one step from total yeast cellular extract on rabbit IgG coupled magnetic beads, 1 h at 4°C, MB buffer (20 mM Tris HCl pH 8, 200 or 300 mM KCl, 5 mM MgOAc) with 0.5% Triton X-100 and 0.1% Tween 20; eluates compared pair wise by semi-quantitative LC-MS/MS with iTRAQ reagents; for Nog1-, Nog2- and Rsa4-TAP wild type against strains in which RPL25, RPL2, RPL43 or RPL21 was shut down for 4 h in glucose.

For the next assay, the target named is T2, Nog1-TAP (S. cerevisiae) (UniProt Q02892).
T2 sequence: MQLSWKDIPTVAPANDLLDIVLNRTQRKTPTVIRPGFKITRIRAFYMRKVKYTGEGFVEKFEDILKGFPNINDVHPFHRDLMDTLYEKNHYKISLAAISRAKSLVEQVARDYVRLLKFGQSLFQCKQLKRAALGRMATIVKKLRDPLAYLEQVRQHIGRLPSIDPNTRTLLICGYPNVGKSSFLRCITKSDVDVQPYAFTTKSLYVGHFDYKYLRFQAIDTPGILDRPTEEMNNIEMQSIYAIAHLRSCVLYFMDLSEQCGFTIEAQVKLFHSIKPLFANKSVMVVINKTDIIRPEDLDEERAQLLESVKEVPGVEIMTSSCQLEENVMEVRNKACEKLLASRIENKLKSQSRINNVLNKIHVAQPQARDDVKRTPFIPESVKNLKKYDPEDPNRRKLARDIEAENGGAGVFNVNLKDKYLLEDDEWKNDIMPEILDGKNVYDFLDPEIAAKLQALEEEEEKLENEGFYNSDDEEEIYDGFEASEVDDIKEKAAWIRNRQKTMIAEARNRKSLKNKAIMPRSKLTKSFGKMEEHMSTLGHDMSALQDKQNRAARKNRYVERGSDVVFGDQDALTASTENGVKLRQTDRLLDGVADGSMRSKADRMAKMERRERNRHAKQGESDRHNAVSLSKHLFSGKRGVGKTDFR
The assay is described as above.

Assay [4] addresses Nog2-TAP (S. cerevisiae) (UniProt P53742). The description is as above. This is another data set of the same source.
In the next assay the target is T3, Rsa4-TAP (S. cerevisiae) (UniProt P25382).
T3 sequence: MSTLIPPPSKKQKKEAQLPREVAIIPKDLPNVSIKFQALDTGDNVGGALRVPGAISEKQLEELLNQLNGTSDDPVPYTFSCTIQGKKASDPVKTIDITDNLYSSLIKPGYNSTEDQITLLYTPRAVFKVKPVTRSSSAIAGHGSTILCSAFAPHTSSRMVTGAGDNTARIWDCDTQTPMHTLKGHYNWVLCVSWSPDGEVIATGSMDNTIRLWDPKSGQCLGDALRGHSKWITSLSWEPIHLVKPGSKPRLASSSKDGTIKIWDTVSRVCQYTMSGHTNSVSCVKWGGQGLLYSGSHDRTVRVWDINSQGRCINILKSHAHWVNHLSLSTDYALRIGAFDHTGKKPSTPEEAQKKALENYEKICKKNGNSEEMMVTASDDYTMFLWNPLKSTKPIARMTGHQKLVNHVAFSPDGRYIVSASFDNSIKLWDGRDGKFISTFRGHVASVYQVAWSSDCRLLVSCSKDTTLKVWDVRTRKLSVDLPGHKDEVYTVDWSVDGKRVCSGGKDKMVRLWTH
Described as above.

For assay [5], the target named is T1, Arx1-TAP (S. cerevisiae). Described as above. This is another data set of the same source.

Like-named read-outs stand apart in the source and are kept apart here. These are yes or no findings as the source states them, for the method shown. Binding seen in cells or lysates may run through a third protein. A yes stands for co-enrichment or nearness to the bait. Other partners may have been found.

For the molecule Tif6 (from UniProt Q12522 1-245), in the assay with Nog2-TAP (S. cerevisiae) [1], the binding entry is “binds”.
Turning to rpL42 (from UniProt P0CX27 1-106), the binding result (in assay [2]; in the assay with Arx1-TAP (S. cerevisiae) [3]) was “binds” each time.
For the molecule rpL29 (from UniProt P05747 1-59), the binding entry (in assay [2]; in the assay with Arx1-TAP (S. cerevisiae) [3]; with Nog2-TAP (S. cerevisiae) [1]) was “binds” in each case.
For Rea1 (from UniProt Q12019 1-4910), the binding result with Nog2-TAP (S. cerevisiae) [1] was “binds”.
Rlp24 (from UniProt Q07915 1-199): the binding result with Nog2-TAP (S. cerevisiae) [1] is given as “binds”.

B1: Erb1 (protein, UniProt Q04660 1-807)
chain: MMAKNNKTTEAKMSKKRAASEESDVEEDEDKLLSVDGLIDAEASESDEDDDEYESAVEEKESSSDKEAQDDSDDDSDAELNKLLAEEEGDGEEDYDSSEFSDDTTSLTDRLSGVKLQTIVDPNIYSKYADGSDRIIKPEINPVYDSDDSDAETQNTIGNIPLSAYDEMPHIGYDINGKRIMRPAKGSALDQLLDSIELPEGWTGLLDKNSGSSLNLTKEELELISKIQRNEQTDDSINPYEPLIDWFTRHEEVMPLTAVPEPKRRFVPSKNEAKRVMKIVRAIREGRIIPPKKLKEMKEKEKIENYQYDLWGDSTETNDHVMHLRAPKLPPPTNEESYNPPEEYLLSPEEKEAWENTEYSERERNFIPQKYSALRKVPGYGESIRERFERSLDLYLAPRVRKNKLNIDPNSLIPELPSPKDLRPFPIRCSTIYAGHKGKVRTLSIDPSGLWLATGSDDGTVRVWEILTGREVYRTTLIDDEENPDYHIECIEWNPDANNGILAVAVGENIHLIVPPIFGYDIENNGKTKIEDGFGYDTFGTVKKSNLEVNENGDGDEDGENESAKNAVKKQVAQWNKPSQKQLEKDICITISCKKTVKKLSWHRKGDYFVTVQPDSGNTSVLIHQVSKHLTQSPFKKSKGIIMDAKFHPFKPQLFVCSQRYVRIYDLSQQILVKKLLPGARWLSKIDIHPRGDNLIASSFDKRVLWHDLDLASTPYKTLRYHEKAVRSVNFHKKLPLFSSAADDGTIHVFHATVYDDMMKNPMIVPLKKLTGHKVINSLGVLDAIWHPREAWLFSAGADNTARLWTT
Consider B1, for which the binding result with Nog1-TAP (S. cerevisiae), with Nog2-TAP (S. cerevisiae) [4] and in the assay with Rsa4-TAP (S. cerevisiae) was “binds” in each case.

B2: Nsa3 (protein, UniProt P38779 1-376)
chain: MAKKSNSKKSTPVSTPSKEKKKVIEKKSSTAIPRERVIKAVNELIKFTSKPQDENNEEGNNGKKNLLEDDEEELKKDLQLIVVNNKSFTGTSKSFKLKLLNVKHSFYKPWKEASATAVKDFKVLLILKDSDIKKVSEDDLFDQLDSEGIKVDEIICGKDLKTVYKAYEARNAFISQFSLILADDSIVTSLPKLMGGKAYNKVETTPISIRTHANKEFSLTTLTNNIKKVYMNQLPVKLPRGTTLNVHLGNLEWLRPEEFVDNVELISEQLIKAYQIRSIFIKTNRSPVLPLYYNQDVLDELEAKKDKIEETHEDDMVTIDGVQVHLSTFNKGLMEIANPSELGSIFSKQINNAKKRSSSELEKESSESEAVKKAKS
Take B2: the binding entry with Nog1-TAP (S. cerevisiae), in the assay with Nog2-TAP (S. cerevisiae) [4] and with Rsa4-TAP (S. cerevisiae) was “binds” throughout.

B3: rpL10 (protein, UniProt P41805 1-221)
chain: MARRPARCYRYQKNKPYPKSRYNRAVPDSKIRIYDLGKKKATVDEFPLCVHLVSNELEQLSSEALEAARICANKYMTTVSGRDAFHLRVRVHPFHVLRINKMLSCAGADRLQQGMRGAWGKPHGLAARVDIGQIIFSVRTKDSNKDVVVEGLRRARYKFPGQQKIILSKKWGFTNLDRPEYLKKREAGEVKDDGAFVKFLSKKGSLENNIREFPEYFAAQA
As for B3, the binding result (in assay [2]; in the assay with Arx1-TAP (S. cerevisiae) [5]; with Nog1-TAP (S. cerevisiae); with Nog2-TAP (S. cerevisiae) [4]; with Rsa4-TAP (S. cerevisiae)) was “binds” in each case.

B4: Rlp7 (protein, UniProt P40693 1-322)
chain: MSSTQDSKAQTLNSNPEILLRKRRNADRTRIERQELAKKKREEQIKKKRSNKNKFVRAESIVAKTLATSREKERIKRVSILEDKKAKNETQHIASGKDFILKITEKANGAEENSVDLEETEEEEDDGLIREKTTYDGKPALLFIVRVRGPLAVNIPNKAFKILSLLRLVETNTGVFVKLTKNVYPLLKVIAPYVVIGKPSLSSIRSLIQKRGRIIYKGENEAEPHEIVLNDNNIVEEQLGDHGIICVEDIIHEIATMGESFSVCNFFLQPFKLNREVSGFGSLNRLRKIKQREAESRTRQFSNAATAPVIEVDIDSLLAKLN
Consider B4, for which the binding result in the assay with Nog1-TAP (S. cerevisiae), with Nog2-TAP (S. cerevisiae) [4] and with Rsa4-TAP (S. cerevisiae) was “binds” in each case.
